For this assay, the system named is L1210 leukemia ip in BDF1 mice, survival T/C. Kind of assay: NCI In Vivo Anticancer Drug Screen. Data for tumor model L1210 Leukemia (intraperitoneal) in B6D2F1 (BDF1) mice. Conditions: T/C endpoint: mean survival time, higher T/C = longer survival.
Where [1] appears, read: dose: 200.0 mg/kg/injection, schedule: Q01DX001 (ip), vehicle: saline with Tween-80.
Setting [2] is: dose: 400.0 mg/kg/injection, schedule: Q04DX003 (ip), vehicle: saline.
Setting [3] is: dose: 150.0 mg/kg/injection, schedule: Q01DX001 (ip), vehicle: saline.
The mark [4] stands for this setting: dose: 300.0 mg/kg/injection, schedule: Q01DX001 (ip), vehicle: saline.
[5] abbreviates: dose: 100.0 mg/kg/injection, schedule: Q04DX002 (ip), vehicle: Klucel (hydroxypropylcellulose) (HPC).
[6] abbreviates: dose: 100.0 mg/kg/injection, schedule: Q04DX002 (ip), vehicle: saline with Tween-80.
Where [7] appears, read: dose: 400.0 mg/kg/injection, schedule: Q01DX001 (ip), vehicle: saline.
[8] abbreviates: dose: 400.0 mg/kg/injection, schedule: Q04DX003 (ip), vehicle: saline with Tween-80.
Where [9] appears, read: dose: 100.0 mg/kg/injection, schedule: Q01DX009 (ip), vehicle: saline.

The list is a part of this screen's results and no random one: it is rich in T/C values a quarter to a half above the control, in often repeated tests (any T/C) and in doses without a T/C. Further doses and runs are listed elsewhere. T/C is the treated group as % of the vehicle group. Some doses have a count of surviving animals in place of a T/C: the source holds a T/C of zero for them, seemingly a mark for toxic or unscored doses. Some doses without a T/C left all or most animals alive at the check, yet need not have been tolerated: survival well below the control is almost never listed, so the zero probably covers shortened survival too. Survivors were counted at the toxicity check, usually on the fifth day, unless a day is given; later deaths do not show. Schedule codes are those of the source, taken here to give the interval after Q, in days (D) or hours (H), and the number of doses after X. Some schedules carry Z or #; the key to these is not given. Some entries hold several experiments; the results are listed from low to high. For survival time, the PubChem record calls one and a half times the control and up active, and a quarter to a half above the control has no call in these data; cut-offs in other NCI protocols can differ.

In the case of `O=c1[nH][nH]c(=O)c2cc3ccccc3cc12`, the survivor count (dose: 250.0 mg/kg/injection, schedule: Q01DX009 (ip), vehicle: Klucel (hydroxypropylcellulose) (HPC)) was 3 of 6.

`ClC1=C(Cl)C2(Cl)C3C4C=CC(C4)C3N1C2(Cl)Cl` (stereo not given): under setting [1], the survivor count is reported as 0 of 6.

Take `CC1(COCCOCC2(C)CO2)CO1` (stereo not given): the T/C is, setting by setting: (dose: 266.0 mg/kg/injection, schedule: Q01DX009 (ip), vehicle: saline) 126 % of control; (dose: 400.0 mg/kg/injection, schedule: Q01DX009 (ip), vehicle: saline) 134 % of control; under setting [2], 133 % of control.

Take `c1ccc(C[P+](Cc2ccccc2)(c2ccccc2)c2ccccc2)cc1`: the survivor count runs as follows: under setting [3], 6 of 6; under setting [4], 3 of 6.

Regarding `CC1(C)N=C(N)N=C(N)N1c1cccc(Cl)c1`, the T/C (dose: 20.0 mg/kg/injection, schedule: Q01DX015 (ip), vehicle: saline) was 145 % of control. Also, the survivor count was 4 of 6 (dose: 80.0 mg/kg/injection, schedule: Q01DX015 (ip), vehicle: saline); 2 of 6 (dose: 150.0 mg/kg/injection, schedule: Q01DX001 (ip), vehicle: acetone); 0 of 6 (dose: 300.0 mg/kg/injection, schedule: Q01DX001 (ip), vehicle: acetone).

As for `CSC(NC(=O)c1ccc([N+](=O)[O-])cc1)C(N)=O` (stereo not given), where the note is “dose: 25.0 mg/kg/injection, schedule: Q04DX002 (ip), vehicle: Klucel (hydroxypropylcellulose) (HPC)”, the survivor count is 3 of 3. Besides, the T/C under setting [5] is 125 % of control.

As to `CC(=O)Oc1cc(C(C)=O)c(O)c2ccccc12`, where the note is “dose: 400.0 mg/kg/injection, schedule: Q01DX001 (ip), vehicle: water”, the survivor count was 0 of 6.

Turning to `CC1=CC(C)(C)NC(=S)N1c1cccc([N+](=O)[O-])c1`, where the note is “dose: 750.0 mg/kg/injection, schedule: Q01DX Z (ip), vehicle: methylcellulose (MC)”, the survivor count is 6 of 6.

Consider `NCCSc1ccc(Br)cc1`, for which the survivor count (dose: 300.0 mg/kg/injection, schedule: Q01DX001 (ip), vehicle: other) was 3 of 6.

In the case of `Cc1ccc(C2CC3c4ccccc4C2C2CCCCN32)cc1` (stereo not given), the survivor count (dose: 100.0 mg/kg/injection, schedule: Q04DX003 (ip), vehicle: saline) was 0 of 6; the survivor count (dose: 200.0 mg/kg/injection, schedule: Q04DX003 (ip), vehicle: saline) is on record as 0 of 6; the survivor count under setting [2] is 0 of 6.

For the compound `COc1ccc(C#N)cc1OC`, the survivor count runs as follows: (dose: 50.0 mg/kg/injection, schedule: Q04DX002 (ip), vehicle: Klucel (hydroxypropylcellulose) (HPC)) 0 of 3; under setting [5], 0 of 3, 1 of 3, 3 of 3; (dose: 200.0 mg/kg/injection, schedule: Q04DX002 (ip), vehicle: Klucel (hydroxypropylcellulose) (HPC)) 0 of 3; (dose: 400.0 mg/kg/injection, schedule: Q04DX002 (ip), vehicle: Klucel (hydroxypropylcellulose) (HPC)) 0 of 3 and 3 of 3.

In the case of `O=C(CCN1CC=C(c2ccccc2)CC1)c1ccc(F)cc1`, under “dose: 200.0 mg/kg/injection, schedule: Q01DX001 (ip), vehicle: Klucel (hydroxypropylcellulose) (HPC)”, the survivor count is reported as 3 of 6.

As for `Nc1[nH]c(=O)ncc1-c1ccccc1Cl`, under setting [6], the T/C was 93, 97, 107 % of control. In addition, the survivor count was 0 of 3 under setting [6]; 2 of 6 under setting [1]; 0 of 3 and 0 of 6 (dose: 200.0 mg/kg/injection, schedule: Q04DX002 (ip), vehicle: saline with Tween-80); 0 of 3 and 0 of 6 (dose: 400.0 mg/kg/injection, schedule: Q04DX002 (ip), vehicle: saline with Tween-80).

`CC(/C=C\C1CCCCC1)=C\C=C\C(C)=C\C=N\Nc1ccc([N+](=O)[O-])cc1[N+](=O)[O-]`: the survivor count (dose: 12.5 mg/kg/injection, schedule: Q01DX001 (ip), vehicle: saline with Tween-80) is 3 of 3; the survivor count (dose: 25.0 mg/kg/injection, schedule: Q01DX001 (ip), vehicle: saline with Tween-80) is listed as 3 of 3; the survivor count (dose: 100.0 mg/kg/injection, schedule: Q01DX001 (ip), vehicle: saline with Tween-80) was 3 of 3; the survivor count under setting [1] is 3 of 3; the survivor count (dose: 400.0 mg/kg/injection, schedule: Q01DX001 (ip), vehicle: saline with Tween-80) is given as 3 of 3.

In the case of `CCCCN(CCCC)CCCNC(=S)Nc1ccccc1`, the survivor count (dose: 400.0 mg/kg/injection, schedule: Q01DX009 (ip), vehicle: Klucel (hydroxypropylcellulose) (HPC)) is given as 0 of 6.

Take `Cn1c(O)c(N=NC(N)=S)c2ccccc21`: the survivor count reads like this: (dose: 125.0 mg/kg/injection, schedule: Q01DX015 (ip), vehicle: carboxymethylcellulose (CMC)) 6 of 6; (dose: 250.0 mg/kg/injection, schedule: Q01DX015 (ip), vehicle: carboxymethylcellulose (CMC)) 6 of 6; (dose: 500.0 mg/kg/injection, schedule: Q01DX015 (ip), vehicle: carboxymethylcellulose (CMC)) 1 of 6.

Turning to `CCCCCCCCCCC[n+]1cccc(C#N)c1`, the survivor count is, setting by setting: (dose: 75.0 mg/kg/injection, schedule: Q01DX001 (ip), vehicle: saline) 1 of 6; under setting [3], 0 of 6; under setting [4], 0 of 6.

For `CC(=O)[C@H]1CC[C@H]2[C@@H]3CCC4=CC(=O)CC[C@]4(C)[C@H]3CC[C@]12C`, the survivor count by setting is: (dose: 125.0 mg/kg/injection, schedule: Q01DX Z (sc), vehicle: steroid suspending solution) 0 of 10; (dose: 250.0 mg/kg/injection, schedule: Q01DX Z (sc), vehicle: steroid suspending solution) 0 of 10; (dose: 500.0 mg/kg/injection, schedule: Q01DX Z (sc), vehicle: steroid suspending solution) 0 of 10; (dose: 1000.0 mg/kg/injection, schedule: Q01DX Z (sc), vehicle: steroid suspending solution) 0 of 10.

For the compound `OCC(O)C(O)C(O)C(O)C(c1ccc(Cl)cc1)c1ccc(Cl)cc1` (stereo not given), the survivor count runs as follows: (dose: 200.0 mg/kg/injection, schedule: Q01DX001 (ip), vehicle: saline) 0 of 4; under setting [7], 0 of 4.

As to `O=C(O)c1cccc2c1C(=O)c1cc(Cl)ccc1-2`, under “dose: 300.0 mg/kg/injection, schedule: Q01DX001 (ip), vehicle: carboxymethylcellulose (CMC)”, the survivor count is listed as 0 of 6.

Regarding `Cc1csc[n+]1C1CCCCC1`, the survivor count was 0 of 6 under setting [3] and 0 of 6 under setting [4].

Regarding `CNC(=O)N(c1ccccc1)C1CCCCC1`, the survivor count under setting [2] is given as 6 of 6.

As to `CCCCCCCCCCCCSCO`, the survivor count is given as 2 of 6 (dose: 400.0 mg/kg/injection, schedule: Q01DX009 (ip), vehicle: saline with Tween-80) and 1 of 6 under setting [8].

Regarding `COc1ccc(C(=O)NC[n+]2ccccc2)cc1`, under setting [9], the survivor count is 5 of 6.

Take `O/N=C/c1cnccn1`: the survivor count under setting [7] is on record as 2 of 4.

With `COc1ccc(C(=O)CCN2CCC(O)(c3ccccc3)CC2)cc1`, the survivor count by setting is: (dose: 100.0 mg/kg/injection, schedule: Q04DX003 (ip), vehicle: saline with Tween-80) 6 of 6; (dose: 200.0 mg/kg/injection, schedule: Q04DX003 (ip), vehicle: saline with Tween-80) 1 of 6; under setting [8], 1 of 6.

`c1ccc2c(c1)CNC2`: the survivor count under setting [9] is recorded as 6 of 6.

For `CCN(CC)CC(C)OC(=O)c1ccc(N)cc1` (stereo not given), the survivor count under setting [2] is on record as 1 of 6.

Source of the values: PubChem BioAssay AID248 (DTP/NCI, 2004).
